Measured values as given in US9822343B2, “Methods and materials for obtaining induced pluripotent stem cells” (priority 2011, dated 2017).
For at least one compound, name, drawing or mass did not settle the structure.

Test system: MEFs
Assay: 1H NMR metabolomic footprinting of extracellular metabolites of treated MEFs
Assay type: cell-based, mouse
Conditions: control experiments; 1.25 mM 2-DG, 100 μM BrPA, 5 mM DCA versus vehicle; n=3
Experimental: For footprinting of extracellular metabolites, 540 μL of media collected following 24 hours of culture was added to 60 μL of D2O (Sigma) containing 5 mM sodium 3-(trimethylsilyl)propionate-2,2,3,3-d4 (TSP) (Sigma) for chemical shift reference and 81.84 mM formate (Sigma) for peak quantification reference as described elsewhere (Turner et al., Stem Cells, 26:1547-1555 (2008)). Briefly, MEFs, iPS cells, and R1ESC were maintained in DMEM containing 15% FBS, pyruvate, L-glutamine, nonessential amino acids, 2-mercaptoethanol, and LIF in 6 well plates at 37° C. in a humidified incubator with 95% air and 5% CO2 (Martinez-Fernandez et al., Circ Res., 25; 105(7):648-56 (2009)). […]
For intracellular metabolite fingerprinting, neutralized perchloric acid extracts were concentrated with a SpeedVac and suspended in 600 μL of 100 mM phosphate buffer (pH 7.0) in D2O (Sigma) containing 0.5 mM TSP as described elsewhere (Beckonert et al., Nat. Protoc., 2:2692-2703 (2007)). […] Following Fourier transformation, spectra were autophased with metabonomic phase correction, baseline corrected using a Bernstein polynomial fit and referenced to the TSP peak (0.00 ppm) using MestReNova 5.3.2 (MestRelab Research). p-toluenesulfonic acid (Sigma) was utilized as a reference standard to calibrate the formate concentration for quantitative analysis (Shao et al., J. Chromatogr. A, 1138:305-308 (2007)). […]

## O=C(O)C(Cl)Cl [DCA, dichloroacetate]
  Extracellular metabolite profile of treated MEFs: stimulated mitochondrial function and accelerated consumption of oxidative substrates
